Data as given in patent US20190144538A1 (TETRAGENETICS, published 2019).

Target: Nav1.8
Experiment: Nav1.8 ELISA (neg)

B1: 1A3 (Fc fusion, not shown: small tags and cut ends; a dimerising Fc or GST)
scFv (part 1 of 2): LDIQMTQSPSSVTASVGEKVTINCKSSQSVVSASNQKSYLNWYQQRPGQSPRLLIYYASTQELGIPDRFSGSGSTTDFTLTISSVQPEDAAVYYCQQAYSAPYNFGSGTRLEIK
scFv (part 2 of 2): QVQLQESGGGLVQPGGSLRLSCAASGFTFSINGMSWVRQAPGKEVEWVSSINSGGEITNYRDSVKGRFTISRDNVKNTLYLQMNSLKPEDTAFYHCVTGIVAYDYWGQGTQVTVSS
binding: no binding

Results are given in words; binding and its absence hold for the method and conditions named.
